# Data published in the supplement of paper PMC10849652.
# Chains of the proteins cited; added tags and fusions are not shown. Lines headed by an entry give the natural chain unless they say otherwise; changes in a name come on top.
# UniProt Q8IW41: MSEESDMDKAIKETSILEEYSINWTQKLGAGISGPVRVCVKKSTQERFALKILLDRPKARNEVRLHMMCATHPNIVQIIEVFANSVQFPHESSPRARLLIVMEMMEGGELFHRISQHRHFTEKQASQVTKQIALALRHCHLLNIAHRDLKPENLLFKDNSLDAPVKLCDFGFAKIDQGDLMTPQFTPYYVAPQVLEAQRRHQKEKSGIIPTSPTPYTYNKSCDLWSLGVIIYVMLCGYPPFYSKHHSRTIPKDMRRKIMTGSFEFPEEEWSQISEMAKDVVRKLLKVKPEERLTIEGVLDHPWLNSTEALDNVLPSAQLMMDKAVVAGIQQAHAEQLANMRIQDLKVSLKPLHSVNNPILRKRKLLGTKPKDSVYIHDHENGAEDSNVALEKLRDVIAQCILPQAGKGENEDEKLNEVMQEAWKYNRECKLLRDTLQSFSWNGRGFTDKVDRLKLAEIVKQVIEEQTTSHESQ
# UniProt Q15691: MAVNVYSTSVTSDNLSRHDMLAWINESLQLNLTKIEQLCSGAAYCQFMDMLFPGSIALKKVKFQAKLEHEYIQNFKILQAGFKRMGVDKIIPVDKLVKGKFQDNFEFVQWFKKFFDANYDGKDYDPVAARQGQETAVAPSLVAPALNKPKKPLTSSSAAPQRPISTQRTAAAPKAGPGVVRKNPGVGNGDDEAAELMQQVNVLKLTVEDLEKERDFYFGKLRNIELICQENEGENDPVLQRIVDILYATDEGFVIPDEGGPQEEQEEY
# UniProt Q9UI95, whole entry, looked up: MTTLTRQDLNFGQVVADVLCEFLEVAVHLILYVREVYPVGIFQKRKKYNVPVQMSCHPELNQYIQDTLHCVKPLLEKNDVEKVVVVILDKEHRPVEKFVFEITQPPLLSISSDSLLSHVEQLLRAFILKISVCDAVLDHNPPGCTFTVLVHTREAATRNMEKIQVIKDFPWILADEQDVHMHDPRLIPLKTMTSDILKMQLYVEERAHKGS
# UniProt P33908: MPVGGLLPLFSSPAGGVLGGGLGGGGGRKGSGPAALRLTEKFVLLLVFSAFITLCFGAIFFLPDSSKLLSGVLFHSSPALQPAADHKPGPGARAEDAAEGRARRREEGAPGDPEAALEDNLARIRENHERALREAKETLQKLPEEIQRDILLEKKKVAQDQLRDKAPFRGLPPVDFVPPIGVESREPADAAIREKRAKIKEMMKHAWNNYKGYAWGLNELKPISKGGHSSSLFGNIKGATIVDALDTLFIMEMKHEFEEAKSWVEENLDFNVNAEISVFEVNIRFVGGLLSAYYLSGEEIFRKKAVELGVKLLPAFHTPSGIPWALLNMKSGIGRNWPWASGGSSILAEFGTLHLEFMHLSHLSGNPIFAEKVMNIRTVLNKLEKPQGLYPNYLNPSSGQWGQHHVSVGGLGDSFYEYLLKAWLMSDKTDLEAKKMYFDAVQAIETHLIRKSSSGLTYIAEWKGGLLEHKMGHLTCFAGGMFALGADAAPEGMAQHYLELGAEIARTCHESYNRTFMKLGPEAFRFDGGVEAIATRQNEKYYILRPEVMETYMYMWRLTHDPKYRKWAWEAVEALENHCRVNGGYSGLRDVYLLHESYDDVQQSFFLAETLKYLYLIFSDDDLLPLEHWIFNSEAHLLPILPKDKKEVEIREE
# UniProt Q9BQ69: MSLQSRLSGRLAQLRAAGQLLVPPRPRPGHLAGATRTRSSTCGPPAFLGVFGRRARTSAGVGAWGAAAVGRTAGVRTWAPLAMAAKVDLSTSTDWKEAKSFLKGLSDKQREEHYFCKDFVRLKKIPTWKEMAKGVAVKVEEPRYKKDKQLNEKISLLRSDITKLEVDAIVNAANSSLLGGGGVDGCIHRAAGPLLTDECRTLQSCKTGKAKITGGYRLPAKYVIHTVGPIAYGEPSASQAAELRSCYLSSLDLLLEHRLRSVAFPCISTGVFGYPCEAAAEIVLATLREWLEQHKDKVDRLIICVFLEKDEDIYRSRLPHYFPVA
# UniProt P10636, whole entry, looked up: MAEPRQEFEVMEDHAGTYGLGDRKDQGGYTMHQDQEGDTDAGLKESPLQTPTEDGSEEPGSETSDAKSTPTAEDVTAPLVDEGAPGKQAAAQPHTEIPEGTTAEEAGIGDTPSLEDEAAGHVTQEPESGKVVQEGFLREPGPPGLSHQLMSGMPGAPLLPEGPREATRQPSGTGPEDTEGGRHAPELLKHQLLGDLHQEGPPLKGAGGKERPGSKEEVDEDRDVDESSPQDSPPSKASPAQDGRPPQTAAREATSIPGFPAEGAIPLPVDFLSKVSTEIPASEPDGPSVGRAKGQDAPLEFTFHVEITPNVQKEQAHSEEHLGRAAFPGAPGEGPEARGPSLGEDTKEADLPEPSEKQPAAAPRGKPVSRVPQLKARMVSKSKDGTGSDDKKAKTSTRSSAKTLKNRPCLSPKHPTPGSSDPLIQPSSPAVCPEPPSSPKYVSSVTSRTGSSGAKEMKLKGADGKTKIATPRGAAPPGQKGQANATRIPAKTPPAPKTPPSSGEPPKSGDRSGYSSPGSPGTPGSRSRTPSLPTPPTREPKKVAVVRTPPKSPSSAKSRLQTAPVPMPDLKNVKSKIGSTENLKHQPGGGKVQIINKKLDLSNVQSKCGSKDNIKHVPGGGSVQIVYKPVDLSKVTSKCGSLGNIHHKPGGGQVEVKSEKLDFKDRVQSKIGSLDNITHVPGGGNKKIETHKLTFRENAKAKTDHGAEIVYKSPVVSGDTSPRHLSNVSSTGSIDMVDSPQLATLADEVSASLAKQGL
# UniProt Q8WVR3: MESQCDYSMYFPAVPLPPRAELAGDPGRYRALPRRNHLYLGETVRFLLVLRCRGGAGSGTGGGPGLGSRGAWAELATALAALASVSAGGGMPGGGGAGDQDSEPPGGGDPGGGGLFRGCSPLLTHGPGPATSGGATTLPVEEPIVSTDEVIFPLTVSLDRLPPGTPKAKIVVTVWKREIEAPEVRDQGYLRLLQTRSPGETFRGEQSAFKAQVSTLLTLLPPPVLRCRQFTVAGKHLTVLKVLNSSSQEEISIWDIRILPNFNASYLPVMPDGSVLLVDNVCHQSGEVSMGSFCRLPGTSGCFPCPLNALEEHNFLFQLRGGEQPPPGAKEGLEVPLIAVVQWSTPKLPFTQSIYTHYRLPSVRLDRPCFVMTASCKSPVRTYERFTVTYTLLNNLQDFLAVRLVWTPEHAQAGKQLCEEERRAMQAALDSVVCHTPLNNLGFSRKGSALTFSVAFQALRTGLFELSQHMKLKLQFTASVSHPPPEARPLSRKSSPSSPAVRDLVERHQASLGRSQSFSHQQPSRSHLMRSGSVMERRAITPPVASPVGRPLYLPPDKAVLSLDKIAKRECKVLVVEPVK
# UniProt Q9UPY8, whole entry, looked up: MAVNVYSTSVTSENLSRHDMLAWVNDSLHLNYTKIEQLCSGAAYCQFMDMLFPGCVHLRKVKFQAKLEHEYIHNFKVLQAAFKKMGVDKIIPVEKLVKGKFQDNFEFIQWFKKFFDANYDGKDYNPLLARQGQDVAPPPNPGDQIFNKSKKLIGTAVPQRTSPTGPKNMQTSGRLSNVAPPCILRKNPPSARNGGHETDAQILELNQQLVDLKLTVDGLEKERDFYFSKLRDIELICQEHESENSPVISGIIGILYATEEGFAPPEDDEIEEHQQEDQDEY
# UniProt Q5SRI9: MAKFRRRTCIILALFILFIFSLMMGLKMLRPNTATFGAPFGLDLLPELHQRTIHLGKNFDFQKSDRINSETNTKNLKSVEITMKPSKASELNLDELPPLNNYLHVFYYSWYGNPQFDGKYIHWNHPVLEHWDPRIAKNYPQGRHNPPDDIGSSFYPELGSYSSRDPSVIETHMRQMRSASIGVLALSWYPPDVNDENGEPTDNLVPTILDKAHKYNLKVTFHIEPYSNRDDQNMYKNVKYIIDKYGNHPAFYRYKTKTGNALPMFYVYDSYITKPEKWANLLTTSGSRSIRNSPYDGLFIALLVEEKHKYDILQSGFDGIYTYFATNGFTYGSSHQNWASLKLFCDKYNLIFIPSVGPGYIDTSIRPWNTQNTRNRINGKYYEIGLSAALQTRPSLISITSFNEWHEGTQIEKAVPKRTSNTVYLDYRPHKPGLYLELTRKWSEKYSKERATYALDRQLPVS
# UniProt P36941: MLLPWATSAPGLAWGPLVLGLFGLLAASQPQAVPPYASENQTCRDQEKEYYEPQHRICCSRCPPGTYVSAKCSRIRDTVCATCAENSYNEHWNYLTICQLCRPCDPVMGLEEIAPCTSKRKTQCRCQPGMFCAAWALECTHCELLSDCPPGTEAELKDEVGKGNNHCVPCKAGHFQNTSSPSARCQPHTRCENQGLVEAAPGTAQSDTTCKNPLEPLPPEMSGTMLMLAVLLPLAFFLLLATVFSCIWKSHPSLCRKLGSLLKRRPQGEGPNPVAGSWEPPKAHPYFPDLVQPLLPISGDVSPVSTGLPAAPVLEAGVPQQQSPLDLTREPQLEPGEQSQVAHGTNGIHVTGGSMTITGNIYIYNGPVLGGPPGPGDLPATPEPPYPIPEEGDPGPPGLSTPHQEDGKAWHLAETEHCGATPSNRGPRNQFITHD
# UniProt O95819: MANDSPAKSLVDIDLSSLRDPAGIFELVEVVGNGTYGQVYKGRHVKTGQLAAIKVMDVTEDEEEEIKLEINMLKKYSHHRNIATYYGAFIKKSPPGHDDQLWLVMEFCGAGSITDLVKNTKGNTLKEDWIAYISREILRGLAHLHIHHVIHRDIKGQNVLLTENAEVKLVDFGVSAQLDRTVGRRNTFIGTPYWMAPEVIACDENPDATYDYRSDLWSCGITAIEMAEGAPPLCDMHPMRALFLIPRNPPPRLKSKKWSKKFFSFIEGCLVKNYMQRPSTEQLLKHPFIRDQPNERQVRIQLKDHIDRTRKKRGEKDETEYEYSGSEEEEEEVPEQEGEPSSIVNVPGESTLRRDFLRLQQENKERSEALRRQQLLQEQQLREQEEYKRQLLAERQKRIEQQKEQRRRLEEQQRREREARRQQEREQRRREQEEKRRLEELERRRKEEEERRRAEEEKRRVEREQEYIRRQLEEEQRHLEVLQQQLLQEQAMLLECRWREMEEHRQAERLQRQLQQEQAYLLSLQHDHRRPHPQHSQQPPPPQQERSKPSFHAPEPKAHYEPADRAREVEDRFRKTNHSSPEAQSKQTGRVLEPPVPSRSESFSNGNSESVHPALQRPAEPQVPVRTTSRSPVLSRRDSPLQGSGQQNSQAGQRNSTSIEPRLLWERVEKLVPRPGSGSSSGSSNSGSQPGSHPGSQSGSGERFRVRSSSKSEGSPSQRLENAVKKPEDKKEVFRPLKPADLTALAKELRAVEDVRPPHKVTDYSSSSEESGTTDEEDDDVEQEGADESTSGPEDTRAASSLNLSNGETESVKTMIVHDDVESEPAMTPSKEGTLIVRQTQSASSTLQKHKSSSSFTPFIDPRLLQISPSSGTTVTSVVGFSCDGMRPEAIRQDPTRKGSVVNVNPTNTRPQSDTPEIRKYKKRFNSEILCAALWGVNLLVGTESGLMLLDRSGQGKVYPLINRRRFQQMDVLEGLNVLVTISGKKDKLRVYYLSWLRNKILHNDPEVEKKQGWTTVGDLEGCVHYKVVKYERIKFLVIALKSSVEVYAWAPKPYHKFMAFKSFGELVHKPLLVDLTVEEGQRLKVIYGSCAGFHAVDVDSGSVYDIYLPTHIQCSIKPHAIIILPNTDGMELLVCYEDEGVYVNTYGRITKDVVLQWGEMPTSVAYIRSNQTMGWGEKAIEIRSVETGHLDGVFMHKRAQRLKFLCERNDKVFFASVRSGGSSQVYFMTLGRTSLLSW
# UniProt Q9Y5V3: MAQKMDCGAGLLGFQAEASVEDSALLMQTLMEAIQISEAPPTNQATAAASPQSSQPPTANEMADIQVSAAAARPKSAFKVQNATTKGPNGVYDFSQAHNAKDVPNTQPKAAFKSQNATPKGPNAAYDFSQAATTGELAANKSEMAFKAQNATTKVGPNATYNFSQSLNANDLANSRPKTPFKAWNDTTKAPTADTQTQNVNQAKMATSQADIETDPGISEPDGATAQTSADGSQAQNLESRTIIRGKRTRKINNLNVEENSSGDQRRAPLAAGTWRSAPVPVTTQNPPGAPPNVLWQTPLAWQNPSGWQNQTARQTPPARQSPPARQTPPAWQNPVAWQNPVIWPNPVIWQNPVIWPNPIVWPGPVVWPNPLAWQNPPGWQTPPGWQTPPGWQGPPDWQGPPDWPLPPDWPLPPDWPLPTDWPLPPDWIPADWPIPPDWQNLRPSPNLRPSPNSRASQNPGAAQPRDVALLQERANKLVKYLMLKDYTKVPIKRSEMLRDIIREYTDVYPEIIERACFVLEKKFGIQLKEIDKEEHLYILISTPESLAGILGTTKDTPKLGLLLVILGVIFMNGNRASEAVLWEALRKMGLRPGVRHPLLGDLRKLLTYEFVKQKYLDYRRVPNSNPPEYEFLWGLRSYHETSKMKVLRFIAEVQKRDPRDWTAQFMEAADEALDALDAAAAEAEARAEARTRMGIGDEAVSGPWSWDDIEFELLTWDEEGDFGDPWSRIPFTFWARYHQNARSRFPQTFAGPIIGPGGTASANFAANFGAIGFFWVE
# The other results are listed elsewhere or left out.
# Tests used:
# Assay in all cases: log2 fold change, soluble protein after heating vs DMSO (PISA); higher = thermal stabilisation; K562 lysate, 10 uM; active = over 0.2 and 3.5 SD of the protein, either way, in both replicates (recomputed)
# lapatinib = compound: CS(=O)(=O)CCNCc1ccc(-c2ccc3ncnc(Nc4ccc(OCc5cccc(F)c5)c(Cl)c4)c3c2)o1 [lapatinib]
# Method in brief: (§1)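 To prepare the extract, K562 pellets were dounce-homogenised in PBS pH 7.4 with 1 mM MgCl2, giving crude material at 1 mg/mL protein. This was treated with 10 μM compound for 30 min, then heated in aliquots for 3 min over 48°C-58°C before pooling and addition of NP-40 to 0.5% at 4°C. Centrifugation at 21,000xg for 90 min left soluble protein in the supernatant, which TMTpro 16plex LC-MS/MS quantified with equalised channel sums. Results are log-two fold changes in thermal stability compared with solvent controls, from duplicates.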
# pictilisib = compound: CS(=O)(=O)N1CCN(Cc2cc3nc(-c4cccc5[nH]ncc45)nc(N4CCOCC4)c3s2)CC1 [pictilisib]
# Method in brief: as §1
# crizotinib = compound: C[C@@H](Oc1cc(-c2cnn(C3CCNCC3)c2)cnc1N)c1c(Cl)ccc(F)c1Cl [crizotinib]
# Method in brief: as §1
# [1] = compound: C[C@H](C1=CC=C(C=C1)C(=O)NC2=C3C=CNC3=NC=C2)N
# Method in brief: as §1
# duvelisib = compound: C[C@H](Nc1ncnc2nc[nH]c12)c1cc2cccc(Cl)c2c(=O)n1-c1ccccc1 [duvelisib]
# Method in brief: as §1
# gandotinib = compound: Cc1cc(Nc2cc(CN3CCOCC3)c3nc(C)c(Cc4ccc(Cl)cc4F)n3n2)n[nH]1 [gandotinib]
# Method in brief: as §1
# tozasertib = compound: Cc1cc(Nc2cc(N3CCN(C)CC3)nc(Sc3ccc(NC(=O)C4CC4)cc3)n2)n[nH]1 [tozasertib]
# Method in brief: as §1
# doramapimod = compound: Cc1ccc(-n2nc(C(C)(C)C)cc2NC(=O)Nc2ccc(OCCN3CCOCC3)c3ccccc23)cc1 [doramapimod]
# Method in brief: as §1
# bafetinib = compound: Cc1ccc(NC(=O)c2ccc(CN3CC[C@H](N(C)C)C3)c(C(F)(F)F)c2)cc1Nc1nccc(-c2cncnc2)n1 [bafetinib]
# Method in brief: as §1
# [2] = compound: Cc1cccc(CC(=O)N2CCc3c2ccc(-c2cn(C)c4ncnc(N)c24)c3F)n1
# Method in brief: as §1
# nilotinib = compound: Cc1cn(-c2cc(NC(=O)c3ccc(C)c(Nc4nccc(-c5cccnc5)n4)c3)cc(C(F)(F)F)c2)cn1 [nilotinib]
# Method in brief: as §1
# [3] = compound: Cc1nc(Nc2n[nH]c3c2CN(C(=O)N[C@H](CN(C)C)c2ccccc2)C3(C)C)c2sccc2n1
# Method in brief: as §1
# dasatinib = compound: Cc1nc(Nc2ncc(C(=O)Nc3c(C)cccc3Cl)s2)cc(N2CCN(CCO)CC2)n1 [dasatinib]
# Method in brief: as §1
# [4] = compound: Cc1ncc(-c2ccnc(Nc3ccc(S(C)(=O)=O)cc3)n2)n1C(C)C
# Method in brief: as §1
# [5] = compound: Cn1cc(-c2ccc3c(c2)CCN3C(=O)Cc2cccc(C(F)(F)F)c2)c2c(N)ncnc21
# Method in brief: as §1
# quisinostat = compound: Cn1cc(CNCC2CCN(c3ncc(C(=O)NO)cn3)CC2)c2ccccc21 [quisinostat]
# Method in brief: as §1
# tipifarnib = compound: Cn1cncc1[C@@](N)(c1ccc(Cl)cc1)c1ccc2c(c1)c(-c1cccc(Cl)c1)cc(=O)n2C [tipifarnib]
# Method in brief: as §1
# [6] = compound: NC(=O)Nc1cc(-c2cccc(F)c2)sc1C(=O)N[C@H]1CCCNC1
# Method in brief: as §1
# [7] = compound: NC(=O)c1cnc(N[C@@H]2CCCC[C@@H]2N)nc1Nc1cccc(-n2nccn2)c1
# Method in brief: as §1
# [8] = compound: NC1(c2ccc(-c3nc4ccn5c(=O)[nH]nc5c4cc3-c3ccccc3)cc2)CCC1
# Method in brief: as §1
Target,log2 fold change (lapatinib),log2 fold change (pictilisib),log2 fold change (crizotinib),log2 fold change [1],log2 fold change (duvelisib),log2 fold change (gandotinib),log2 fold change (tozasertib),log2 fold change (doramapimod),log2 fold change (bafetinib),log2 fold change [2],log2 fold change (nilotinib),log2 fold change [3],log2 fold change (dasatinib),log2 fold change [4],log2 fold change [5],log2 fold change (quisinostat),log2 fold change (tipifarnib),log2 fold change [6],log2 fold change [7],log2 fold change [8]
MAP4 (UniProt E7EVA0),inactive: 0.002,inactive: -0.054,inactive: -0.163,inactive: -0.096,inactive: 0.012,inactive: 0.007,inactive: 0.055,inactive: 0.017,inactive: -0.055,inactive: 0.008,inactive: 0.073,inactive: 0.021,inactive: -0.009,inactive: 0.046,inactive: 0.057,active: -0.271,inactive: -0.031,inactive: 0.024,inactive: 0.016,inactive: -0.1
LTBP4 (UniProt Q8N2S1),inactive: 0.068,inactive: -0.073,inactive: -0.074,inactive: -0.119,inactive: 0.021,inactive: 0.2,inactive: 0.015,inactive: -0.029,inactive: 0.129,inactive: 0.062,inactive: -0.094,inactive: -0.095,inactive: 0.076,inactive: 0.101,inactive: -0.027,inactive: -0.056,inactive: 0.061,inactive: 0.051,inactive: -0.01,inactive: -0.005
MAPKAPK5 (UniProt Q8IW41),inactive: 0.05,inactive: -0.008,inactive: -0.085,inactive: 0.111,inactive: 0.04,inactive: -0.07,inactive: -0.004,inactive: 0.015,inactive: 0.019,inactive: -0.053,inactive: -0.003,inactive: 0.056,inactive: 0.011,inactive: 0.064,inactive: 0.024,inactive: -0.222,inactive: -0.065,active: 0.519,inactive: -0.006,inactive: -0.006
MAPRE1 (UniProt Q15691),inactive: -0.004,inactive: 0.009,inactive: 0.022,inactive: 0.077,inactive: -0.002,inactive: -0.033,inactive: -0.003,inactive: -0.006,inactive: 0.032,inactive: -0.049,inactive: -0.006,inactive: 0.01,inactive: 0.005,inactive: -0.02,inactive: 0.001,inactive: 0.038,inactive: 0.036,inactive: -0.006,inactive: -0.011,inactive: 0.014
MACF1 (UniProt H3BQK9),inactive: -0.035,inactive: -0.033,inactive: -0.047,inactive: 0.012,inactive: 0.006,inactive: -0.074,inactive: 0.015,inactive: -0.016,inactive: -0.042,inactive: 0.019,inactive: 0.006,inactive: 0.026,inactive: -0.025,inactive: 0.015,inactive: 0.057,inactive: -0.078,inactive: -0.018,inactive: 0.015,inactive: 0.04,inactive: -0.027
MAD2L2 (UniProt Q9UI95),inactive: -0.003,inactive: 0.058,inactive: -0.142,inactive: -0.008,inactive: -0.001,inactive: -0.127,inactive: 0.042,inactive: 0.022,inactive: -0.11,inactive: 0.073,inactive: 0.031,inactive: -0.029,inactive: -0.064,inactive: 0.006,inactive: -0.035,inactive: -0.231,inactive: -0.015,inactive: 0.064,inactive: 0.117,inactive: -0.065
MACF1 (UniProt E9PLY5),inactive: -0.137,inactive: 0.001,inactive: -0.015,inactive: -0.3,,inactive: 0.042,,inactive: -0.167,inactive: -0.064,inactive: 0.328,inactive: 0.002,inactive: 0.022,,inactive: 0.108,,inactive: 0.084,inactive: 0.07,inactive: 0.108,inactive: 0.022,
MAN1A1 (UniProt P33908),inactive: -0.031,inactive: -0.017,inactive: 0.002,inactive: -0.037,inactive: 0.007,inactive: 0,inactive: 0,inactive: 0.009,inactive: -0.055,inactive: 0.053,inactive: -0.015,inactive: -0.013,inactive: 0.004,inactive: 0.022,inactive: 0.038,inactive: 0.035,inactive: -0.041,inactive: 0.005,inactive: -0.01,inactive: -0.063
"LYPLA1, A0A087X1K9",inactive: 0.266,,inactive: -0.008,inactive: -0.097,,inactive: 0.18,inactive: 0.134,inactive: 0.232,,inactive: 0.356,,,,,,inactive: -0.261,,inactive: 0.026,inactive: -0.067,
MACROD1 (UniProt Q9BQ69),inactive: 0.011,inactive: -0.013,inactive: -0.066,inactive: 0.084,inactive: 0.04,inactive: -0.017,inactive: -0.03,inactive: -0.012,inactive: -0.102,inactive: 0.052,inactive: 0.036,inactive: -0.099,inactive: -0.066,inactive: 0.021,inactive: 0.055,inactive: -0.083,inactive: 0.005,inactive: 0.022,inactive: -0.006,inactive: -0.024
MAPT isoform 7 (UniProt P10636),inactive: 0.018,,inactive: 0.043,inactive: 0,,inactive: 0.101,,inactive: 0.024,,inactive: 0.011,,,,,,inactive: 0,,inactive: 0.066,inactive: -0.03,
MAP11 (UniProt Q8WVR3),inactive: -0.047,inactive: -0.028,inactive: -0.011,inactive: -0.102,inactive: -0.04,inactive: -0.06,inactive: -0.024,inactive: -0.024,inactive: -0.021,inactive: 0.001,inactive: -0.088,inactive: 0.002,inactive: 0.002,inactive: 0.021,inactive: -0.058,inactive: -0.026,inactive: -0.063,inactive: 0.037,inactive: -0.014,inactive: -0.007
MAPRE3 isoform 2 (UniProt Q9UPY8),inactive: 0.135,inactive: -0.37,inactive: -0.138,inactive: 0.092,,inactive: 0.08,,inactive: 0.037,inactive: 0.112,inactive: -0.077,,,,,,inactive: -0.169,,inactive: 0.094,inactive: 0.124,inactive: -0.184
MANEA (UniProt Q5SRI9),inactive: -0.01,inactive: 0.008,inactive: -0.023,active: -0.464,inactive: 0.036,active: 0.365,inactive: 0.035,inactive: 0.034,inactive: 0.007,inactive: 0.278,,,inactive: -0.003,,inactive: 0.046,inactive: 0.046,,inactive: 0.05,inactive: 0.01,inactive: -0.044
LTBR (UniProt P36941),inactive: 0.034,inactive: -0.169,inactive: -0.141,inactive: -0.177,,inactive: 0.097,,inactive: -0.185,inactive: -0.006,inactive: 0.103,,,,,,inactive: 0.06,,inactive: 0.016,inactive: 0.086,inactive: -0.002
MAP4K4 isoform 3 (UniProt O95819),inactive: -0.061,inactive: -0.049,,inactive: 0.201,inactive: 0.078,inactive: -0.088,inactive: 0.014,inactive: 0.087,inactive: 0.03,inactive: -0.01,inactive: -0.108,inactive: 0.03,inactive: -0.103,inactive: 0.002,inactive: 0.006,inactive: -0.103,inactive: 0.038,active: 0.27,inactive: 0.02,inactive: -0.032
MAGED1 isoform 2 (UniProt Q9Y5V3),inactive: 0.055,inactive: -0.038,inactive: 0.021,inactive: 0.047,,inactive: 0.218,,inactive: -0.006,inactive: -0.058,inactive: -0.145,inactive: 0.018,inactive: 0.055,,inactive: -0.062,,inactive: -0.076,inactive: 0.146,inactive: 0.019,inactive: 0.085,inactive: -0.044

# Exported bar-delimited: part of the list above.
Target | log2 fold change (lapatinib) | log2 fold change (pictilisib) | log2 fold change (crizotinib) | log2 fold change [1] | log2 fold change (duvelisib) | log2 fold change (gandotinib) | log2 fold change (tozasertib) | log2 fold change (doramapimod) | log2 fold change (bafetinib) | log2 fold change [2] | log2 fold change (nilotinib) | log2 fold change [3] | log2 fold change (dasatinib) | log2 fold change [4] | log2 fold change [5] | log2 fold change (quisinostat) | log2 fold change (tipifarnib) | log2 fold change [6] | log2 fold change [7] | log2 fold change [8]
MACF1 (UniProt E9PLY5) | inactive: -0.137 | inactive: 0.001 | inactive: -0.015 | inactive: -0.3 |  | inactive: 0.042 |  | inactive: -0.167 | inactive: -0.064 | inactive: 0.328 | inactive: 0.002 | inactive: 0.022 |  | inactive: 0.108 |  | inactive: 0.084 | inactive: 0.07 | inactive: 0.108 | inactive: 0.022 | 
MAN1A1 (UniProt P33908) | inactive: -0.031 | inactive: -0.017 | inactive: 0.002 | inactive: -0.037 | inactive: 0.007 | inactive: 0 | inactive: 0 | inactive: 0.009 | inactive: -0.055 | inactive: 0.053 | inactive: -0.015 | inactive: -0.013 | inactive: 0.004 | inactive: 0.022 | inactive: 0.038 | inactive: 0.035 | inactive: -0.041 | inactive: 0.005 | inactive: -0.01 | inactive: -0.063
